The test concerns the target T1, N-terminal-luciferase-fused HO-2 construct (Luc-HO-2) (human) (UniProt P30519).
T1 sequence: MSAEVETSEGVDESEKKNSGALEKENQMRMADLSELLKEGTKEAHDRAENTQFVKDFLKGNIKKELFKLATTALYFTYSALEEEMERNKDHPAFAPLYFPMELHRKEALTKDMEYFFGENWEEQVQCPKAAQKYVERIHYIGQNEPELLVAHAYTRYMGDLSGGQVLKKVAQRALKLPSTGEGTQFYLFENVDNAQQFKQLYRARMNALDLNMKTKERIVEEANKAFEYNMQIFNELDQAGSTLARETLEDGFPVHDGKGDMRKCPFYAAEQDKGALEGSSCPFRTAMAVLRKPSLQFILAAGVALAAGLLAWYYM
Nature of the test: FRET or BRET; BRET donor saturation in live HEK293T cells: constant Luc-HO-1 or Luc-HO-2 plasmid (0.25 ug) and increasing CPR-GFP or GFP plasmid (0 to 0.875 ug); coelenterazine 400a; one-site saturation binding fit, KD referred to as BRET50; no compound. (In BRET a luciferase serves as donor, and the signal depends on an acceptor being close.)

Results are given in words; binding and its absence hold for the method and conditions named. In cells and extracts the contact can be indirect. Some binding calls cover weakened binding; strength is not graded here. Where a sequence is shown, tags or fusion partners need not be part of it.

B1: CPR construct with its carboxyl-terminus fused to GFP (CPR-GFP) (enzyme, UniProt P16435 1-677)
chain: MGDSHVDTSSTVSEAVAEEVSLFSMTDMILFSLIVGLLTYWFLFRKKKEEVPEFTKIQTLTSSVRESSFVEKMKKTGRNIIVFYGSQTGTAEEFANRLSKDAHRYGMRGMSADPEEYDLADLSSLPEIDNALVVFCMATYGEGDPTDNAQDFYDWLQETDVDLSGVKFAVFGLGNKTYEHFNAMGKYVDKRLEQLGAQRIFELGLGDDDGNLEEDFITWREQFWPAVCEHFGVEATGEESSIRQYELVVHTDIDAAKVYMGEMGRLKSYENQKPPFDAKNPFLAAVTTNRKLNQGTERHLMHLELDISDSKIRYESGDHVAVYPANDSALVNQLGKILGADLDVVMSLNNLDEESNKKHPFPCPTSYRTALTYYLDITNPPRTNVLYELAQYASEPSEQELLRKMASSSGEGKELYLSWVVEARRHILAILQDCPSLRPPIDHLCELLPRLQARYYSIASSSKVHPNSVHICAVVVEYETKAGRINKGVATNWLRAKEPAGENGGRALVPMFVRKSQFRLPFKATTPVIMVGPGTGVAPFIGFIQERAWLRQQGKEVGETLLYYGCRRSDEDYLYREELAQFHRDGALTQLNVAFSREQSHKVYVQHLLKQDREHLWKLIEGGAHIYVCGDARNMARDVQNTFYDIVAELGAMEHAQAVDYIKKLMTKGRYSLDVWS
B1: the binding entry was “binds”.

These data come from paper PMC5781335, “Identification of danthron as an isoform-specific inhibitor of HEME OXYGENASE-1/cytochrome P450 reductase interaction with anti-tumor activity” (Journal of Biomedical Science, 2018).
